Reference: ChEMBL document CHEMBL1147268, “New triterpene glycosides from the stems of Anomospermum grandifolium” (2003)
In brackets after ≈: the same amount, converted by molar mass.

Tested on: Staphylococcus aureus
Assay: Antibacterial activity against Staphylococcus aureus ATCC 25923 after 18 hrs by broth microdilution method
Format: functional
Conditions: ATCC 25923, 18 h

- MIC: 0.5 µg/mL (≈ 1.43 µM)
SMILES: CC1(C)S[C@@H]2[C@H](NC(=O)[C@H](N)c3ccccc3)C(=O)N2[C@H]1C(=O)O [AMPICILLIN]
